No constants are given. Whether binding was seen depends on the method and setting. In cells and extracts the contact can be indirect. A result given as binding can be weak or reduced; the word gives no strength.
Molecular target: Zinc-finger of the cerebellum 2 (Zic2) (human (endogenous in DLD-1, SW480, HCT116)) (UniProt O95409)
Assay: co-IP; lysates of DLD-1, SW480 and HCT116 cells in Triton X-100 lysis buffer (150 mM NaCl, 0.5% NP-40, Tris-HCl pH 8.0, glycerol) with phosphatase and protease inhibitors; Thermo Scientific Pierce Co-IP kit; detected by western blot

By UniProt entry, the sequences of proteins in these tests, tags left out. Where a name states a change or a piece, a line headed by the entry shows the natural chain unless it says otherwise.
UniProt O95409: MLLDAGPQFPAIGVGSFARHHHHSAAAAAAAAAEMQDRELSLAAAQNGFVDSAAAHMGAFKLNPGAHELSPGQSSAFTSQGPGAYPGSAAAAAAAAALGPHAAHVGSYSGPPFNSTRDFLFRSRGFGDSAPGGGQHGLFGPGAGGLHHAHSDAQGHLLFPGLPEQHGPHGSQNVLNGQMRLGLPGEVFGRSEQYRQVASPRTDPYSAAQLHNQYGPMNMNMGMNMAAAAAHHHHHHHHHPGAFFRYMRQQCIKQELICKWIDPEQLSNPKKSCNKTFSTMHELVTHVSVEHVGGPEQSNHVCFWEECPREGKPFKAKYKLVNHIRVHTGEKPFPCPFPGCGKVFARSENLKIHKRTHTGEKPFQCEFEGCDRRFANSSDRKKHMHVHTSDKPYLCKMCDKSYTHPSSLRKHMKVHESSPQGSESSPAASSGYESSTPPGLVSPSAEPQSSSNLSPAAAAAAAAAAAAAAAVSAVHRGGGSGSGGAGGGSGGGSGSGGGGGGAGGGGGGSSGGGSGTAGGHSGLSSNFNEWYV
UniProt P35222: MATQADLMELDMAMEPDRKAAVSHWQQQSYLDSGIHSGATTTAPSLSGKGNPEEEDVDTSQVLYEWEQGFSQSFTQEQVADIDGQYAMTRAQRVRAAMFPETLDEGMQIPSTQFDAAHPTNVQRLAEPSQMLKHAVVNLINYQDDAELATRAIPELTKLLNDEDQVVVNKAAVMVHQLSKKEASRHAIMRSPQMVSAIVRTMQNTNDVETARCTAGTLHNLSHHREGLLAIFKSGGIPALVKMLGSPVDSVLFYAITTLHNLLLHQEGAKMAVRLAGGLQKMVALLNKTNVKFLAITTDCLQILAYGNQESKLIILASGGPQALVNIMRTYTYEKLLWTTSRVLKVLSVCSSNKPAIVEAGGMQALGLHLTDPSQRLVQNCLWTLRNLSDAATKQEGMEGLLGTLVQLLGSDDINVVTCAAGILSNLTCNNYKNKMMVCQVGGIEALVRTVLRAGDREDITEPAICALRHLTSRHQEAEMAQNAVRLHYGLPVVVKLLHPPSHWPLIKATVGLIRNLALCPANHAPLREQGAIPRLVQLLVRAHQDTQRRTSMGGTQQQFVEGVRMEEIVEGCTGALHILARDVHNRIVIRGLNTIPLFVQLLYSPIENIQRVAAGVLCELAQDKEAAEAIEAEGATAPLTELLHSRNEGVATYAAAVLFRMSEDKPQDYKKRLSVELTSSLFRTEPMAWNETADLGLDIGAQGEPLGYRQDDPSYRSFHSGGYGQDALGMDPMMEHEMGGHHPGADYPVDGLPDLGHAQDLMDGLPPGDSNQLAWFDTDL

β-catenin of HCT116 cells (in-frame deletion at Ser45) (from UniProt P35222)
binding: binds

From paper PMC8184991
